From publication PMC11580471
Results are given in words; binding and its absence hold for the method and conditions named. In cells and extracts the contact can be indirect. Some binding calls cover weakened binding; strength is not graded here. Tags and fused reporters may be left off the sequences shown.

The chains behind the UniProt entries cited, without tags or fusion partners. Residues count along the entry.
UniProt P05067, residues 18-770: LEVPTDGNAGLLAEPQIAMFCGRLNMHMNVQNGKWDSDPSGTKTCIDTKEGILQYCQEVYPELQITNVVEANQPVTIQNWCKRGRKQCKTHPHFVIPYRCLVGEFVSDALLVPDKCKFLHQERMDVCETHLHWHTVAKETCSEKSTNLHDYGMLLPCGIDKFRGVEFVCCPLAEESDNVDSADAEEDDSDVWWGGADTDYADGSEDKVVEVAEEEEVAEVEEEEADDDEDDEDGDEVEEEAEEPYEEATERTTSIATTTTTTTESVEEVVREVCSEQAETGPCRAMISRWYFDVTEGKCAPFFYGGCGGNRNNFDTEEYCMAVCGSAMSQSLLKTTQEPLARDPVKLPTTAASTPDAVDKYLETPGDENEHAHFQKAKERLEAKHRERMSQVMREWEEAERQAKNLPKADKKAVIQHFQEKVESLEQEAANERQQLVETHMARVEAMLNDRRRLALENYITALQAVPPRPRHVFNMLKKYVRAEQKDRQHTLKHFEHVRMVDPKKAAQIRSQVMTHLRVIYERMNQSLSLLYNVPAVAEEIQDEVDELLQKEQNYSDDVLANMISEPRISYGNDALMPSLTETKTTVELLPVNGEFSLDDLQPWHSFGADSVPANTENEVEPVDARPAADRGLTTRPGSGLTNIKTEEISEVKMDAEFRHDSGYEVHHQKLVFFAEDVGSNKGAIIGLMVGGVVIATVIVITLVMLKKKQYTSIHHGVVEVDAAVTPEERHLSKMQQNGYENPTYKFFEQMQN

Target: T1, F-box and leucine-rich repeat protein 16 (Flag-FBXL16) (human) (UniProt Q8N461)
T1 sequence: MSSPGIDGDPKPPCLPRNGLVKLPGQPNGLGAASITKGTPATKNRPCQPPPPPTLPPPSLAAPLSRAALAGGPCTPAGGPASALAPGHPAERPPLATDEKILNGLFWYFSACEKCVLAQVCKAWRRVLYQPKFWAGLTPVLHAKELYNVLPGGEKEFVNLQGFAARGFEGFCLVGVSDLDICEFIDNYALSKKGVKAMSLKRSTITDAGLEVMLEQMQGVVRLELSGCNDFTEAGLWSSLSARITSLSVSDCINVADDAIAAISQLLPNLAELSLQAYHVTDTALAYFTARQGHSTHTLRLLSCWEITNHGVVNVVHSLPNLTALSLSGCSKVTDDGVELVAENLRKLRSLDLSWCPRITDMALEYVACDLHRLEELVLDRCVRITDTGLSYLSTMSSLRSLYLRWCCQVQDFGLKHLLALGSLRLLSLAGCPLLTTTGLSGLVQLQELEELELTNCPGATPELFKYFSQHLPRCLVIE
Test: co-IP; Flag-FBXL16 and Myc-APP vectors transfected into HEK293 cells, 24 h; RIPA lysis; lysate incubated with anti-Flag or anti-Myc antibodies overnight at 4 °C, magnetic beads, washed three times; Western blot

binding: binds
Substance: amyloid precursor protein (Myc-APP) (from UniProt P05067 18-770)
